Data taken from US20240165140A1, “MEDICATION FOR INHIBITING DNA-PKCS” (TSINGHUA UNIVERSITY, priority 2017, published 2024).
Results are given in words; binding and its absence hold for the method and conditions named. Binding seen in cells or lysates may run through a third protein. Some entries that bind do so weakly or less than the wild type.

Sequences of proteins named here, by UniProt entry; tags and fusion partners are left off. A change or cut given only in a name is not applied to a line headed by its entry.
UniProt P78527: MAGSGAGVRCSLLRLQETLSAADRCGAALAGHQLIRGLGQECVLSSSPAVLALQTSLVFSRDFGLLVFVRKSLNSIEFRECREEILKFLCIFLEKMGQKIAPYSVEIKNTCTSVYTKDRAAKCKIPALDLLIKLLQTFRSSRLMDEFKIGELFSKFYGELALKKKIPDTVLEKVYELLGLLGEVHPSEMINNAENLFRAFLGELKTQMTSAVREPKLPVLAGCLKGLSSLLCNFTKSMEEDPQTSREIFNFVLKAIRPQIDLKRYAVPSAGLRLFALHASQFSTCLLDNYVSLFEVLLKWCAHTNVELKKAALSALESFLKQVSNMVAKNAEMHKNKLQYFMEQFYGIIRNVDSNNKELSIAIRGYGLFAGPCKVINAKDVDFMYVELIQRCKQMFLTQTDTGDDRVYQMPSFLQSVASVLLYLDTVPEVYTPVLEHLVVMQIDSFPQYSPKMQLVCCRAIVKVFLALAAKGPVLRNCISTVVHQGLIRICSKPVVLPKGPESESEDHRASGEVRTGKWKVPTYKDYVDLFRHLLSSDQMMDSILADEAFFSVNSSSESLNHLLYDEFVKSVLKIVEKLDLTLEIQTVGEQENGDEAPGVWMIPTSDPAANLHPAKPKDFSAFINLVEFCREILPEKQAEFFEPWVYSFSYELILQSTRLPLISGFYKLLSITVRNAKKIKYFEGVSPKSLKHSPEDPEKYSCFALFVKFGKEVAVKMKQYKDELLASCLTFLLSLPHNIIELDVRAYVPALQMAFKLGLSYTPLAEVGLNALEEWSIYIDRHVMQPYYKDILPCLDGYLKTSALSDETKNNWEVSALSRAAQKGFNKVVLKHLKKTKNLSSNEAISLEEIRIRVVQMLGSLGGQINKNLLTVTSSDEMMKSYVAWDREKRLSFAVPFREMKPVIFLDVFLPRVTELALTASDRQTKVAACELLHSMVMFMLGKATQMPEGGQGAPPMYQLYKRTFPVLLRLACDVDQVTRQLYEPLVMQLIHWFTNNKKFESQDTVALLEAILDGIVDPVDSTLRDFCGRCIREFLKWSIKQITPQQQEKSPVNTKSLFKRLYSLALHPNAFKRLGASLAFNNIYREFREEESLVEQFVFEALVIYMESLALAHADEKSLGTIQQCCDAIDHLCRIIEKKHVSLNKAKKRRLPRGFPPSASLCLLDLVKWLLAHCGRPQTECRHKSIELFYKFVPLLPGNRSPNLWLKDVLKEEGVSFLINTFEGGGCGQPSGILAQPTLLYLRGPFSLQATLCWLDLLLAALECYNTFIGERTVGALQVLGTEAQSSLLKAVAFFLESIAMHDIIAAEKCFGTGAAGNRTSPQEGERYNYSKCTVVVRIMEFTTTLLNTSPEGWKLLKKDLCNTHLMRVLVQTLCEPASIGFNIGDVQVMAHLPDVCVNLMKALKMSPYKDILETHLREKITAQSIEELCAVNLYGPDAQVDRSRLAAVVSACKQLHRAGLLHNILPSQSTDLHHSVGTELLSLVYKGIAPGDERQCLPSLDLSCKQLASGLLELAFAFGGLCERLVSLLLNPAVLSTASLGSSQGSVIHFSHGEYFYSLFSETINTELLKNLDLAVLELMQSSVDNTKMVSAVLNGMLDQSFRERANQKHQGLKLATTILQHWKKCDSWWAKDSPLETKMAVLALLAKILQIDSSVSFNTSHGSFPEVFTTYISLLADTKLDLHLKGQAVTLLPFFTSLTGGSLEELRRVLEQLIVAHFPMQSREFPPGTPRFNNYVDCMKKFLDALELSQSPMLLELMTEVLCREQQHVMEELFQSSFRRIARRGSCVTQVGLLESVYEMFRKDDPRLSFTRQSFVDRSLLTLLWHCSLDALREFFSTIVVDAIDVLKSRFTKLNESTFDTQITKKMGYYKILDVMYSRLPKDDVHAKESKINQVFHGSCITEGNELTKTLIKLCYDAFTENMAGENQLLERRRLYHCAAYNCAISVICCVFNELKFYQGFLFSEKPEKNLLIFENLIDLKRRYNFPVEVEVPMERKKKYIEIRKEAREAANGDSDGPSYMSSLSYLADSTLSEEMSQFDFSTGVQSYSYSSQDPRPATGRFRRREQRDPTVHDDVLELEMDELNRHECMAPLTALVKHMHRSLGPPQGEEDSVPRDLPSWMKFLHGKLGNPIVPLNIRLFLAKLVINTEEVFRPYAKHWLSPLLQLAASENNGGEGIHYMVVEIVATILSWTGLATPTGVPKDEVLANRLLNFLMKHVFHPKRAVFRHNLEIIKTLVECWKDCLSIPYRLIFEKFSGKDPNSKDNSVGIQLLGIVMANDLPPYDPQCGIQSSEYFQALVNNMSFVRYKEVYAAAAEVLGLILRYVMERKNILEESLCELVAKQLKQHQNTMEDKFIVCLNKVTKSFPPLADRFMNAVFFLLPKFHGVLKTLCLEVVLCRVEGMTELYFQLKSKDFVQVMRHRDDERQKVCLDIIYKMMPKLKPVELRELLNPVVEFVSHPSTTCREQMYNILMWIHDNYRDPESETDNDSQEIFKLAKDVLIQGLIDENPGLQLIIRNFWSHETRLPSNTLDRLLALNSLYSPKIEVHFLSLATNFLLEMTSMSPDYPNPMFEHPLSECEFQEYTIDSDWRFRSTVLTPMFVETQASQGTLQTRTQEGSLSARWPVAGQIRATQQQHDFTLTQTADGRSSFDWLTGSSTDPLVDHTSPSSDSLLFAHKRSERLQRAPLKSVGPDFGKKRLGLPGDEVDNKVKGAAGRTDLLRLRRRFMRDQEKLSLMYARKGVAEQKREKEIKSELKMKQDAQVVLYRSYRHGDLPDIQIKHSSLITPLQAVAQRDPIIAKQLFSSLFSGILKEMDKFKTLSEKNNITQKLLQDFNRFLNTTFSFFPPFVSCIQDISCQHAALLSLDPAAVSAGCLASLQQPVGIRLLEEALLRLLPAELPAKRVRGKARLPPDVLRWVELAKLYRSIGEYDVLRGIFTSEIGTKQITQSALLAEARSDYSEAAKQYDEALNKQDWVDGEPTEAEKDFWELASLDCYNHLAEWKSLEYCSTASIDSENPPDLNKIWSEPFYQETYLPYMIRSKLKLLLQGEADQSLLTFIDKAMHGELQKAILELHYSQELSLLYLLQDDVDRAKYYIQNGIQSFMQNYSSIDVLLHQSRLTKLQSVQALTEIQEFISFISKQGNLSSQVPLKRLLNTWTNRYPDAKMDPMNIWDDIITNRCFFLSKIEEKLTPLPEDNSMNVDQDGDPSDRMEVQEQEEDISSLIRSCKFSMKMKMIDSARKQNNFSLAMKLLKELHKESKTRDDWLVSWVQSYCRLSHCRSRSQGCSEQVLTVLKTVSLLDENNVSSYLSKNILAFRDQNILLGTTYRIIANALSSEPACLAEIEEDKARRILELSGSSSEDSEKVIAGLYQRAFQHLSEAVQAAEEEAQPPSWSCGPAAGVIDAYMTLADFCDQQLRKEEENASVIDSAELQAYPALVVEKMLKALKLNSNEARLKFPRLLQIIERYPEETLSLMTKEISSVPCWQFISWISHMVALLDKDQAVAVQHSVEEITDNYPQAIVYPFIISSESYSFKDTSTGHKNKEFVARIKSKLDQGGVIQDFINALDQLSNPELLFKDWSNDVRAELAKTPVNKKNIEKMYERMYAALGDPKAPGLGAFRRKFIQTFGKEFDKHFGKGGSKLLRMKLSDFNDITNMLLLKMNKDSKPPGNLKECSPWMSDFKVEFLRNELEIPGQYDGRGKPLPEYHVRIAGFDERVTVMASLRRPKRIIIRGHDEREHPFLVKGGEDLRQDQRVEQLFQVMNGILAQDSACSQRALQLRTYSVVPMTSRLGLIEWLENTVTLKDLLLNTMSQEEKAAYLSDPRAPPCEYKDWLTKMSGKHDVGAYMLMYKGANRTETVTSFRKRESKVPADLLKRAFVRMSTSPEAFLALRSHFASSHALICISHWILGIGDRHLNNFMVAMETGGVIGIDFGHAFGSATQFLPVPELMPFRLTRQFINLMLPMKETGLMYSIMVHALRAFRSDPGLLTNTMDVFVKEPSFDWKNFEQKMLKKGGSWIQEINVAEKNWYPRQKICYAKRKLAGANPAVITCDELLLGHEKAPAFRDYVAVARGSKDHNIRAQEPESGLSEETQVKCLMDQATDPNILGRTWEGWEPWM
UniProt P39060: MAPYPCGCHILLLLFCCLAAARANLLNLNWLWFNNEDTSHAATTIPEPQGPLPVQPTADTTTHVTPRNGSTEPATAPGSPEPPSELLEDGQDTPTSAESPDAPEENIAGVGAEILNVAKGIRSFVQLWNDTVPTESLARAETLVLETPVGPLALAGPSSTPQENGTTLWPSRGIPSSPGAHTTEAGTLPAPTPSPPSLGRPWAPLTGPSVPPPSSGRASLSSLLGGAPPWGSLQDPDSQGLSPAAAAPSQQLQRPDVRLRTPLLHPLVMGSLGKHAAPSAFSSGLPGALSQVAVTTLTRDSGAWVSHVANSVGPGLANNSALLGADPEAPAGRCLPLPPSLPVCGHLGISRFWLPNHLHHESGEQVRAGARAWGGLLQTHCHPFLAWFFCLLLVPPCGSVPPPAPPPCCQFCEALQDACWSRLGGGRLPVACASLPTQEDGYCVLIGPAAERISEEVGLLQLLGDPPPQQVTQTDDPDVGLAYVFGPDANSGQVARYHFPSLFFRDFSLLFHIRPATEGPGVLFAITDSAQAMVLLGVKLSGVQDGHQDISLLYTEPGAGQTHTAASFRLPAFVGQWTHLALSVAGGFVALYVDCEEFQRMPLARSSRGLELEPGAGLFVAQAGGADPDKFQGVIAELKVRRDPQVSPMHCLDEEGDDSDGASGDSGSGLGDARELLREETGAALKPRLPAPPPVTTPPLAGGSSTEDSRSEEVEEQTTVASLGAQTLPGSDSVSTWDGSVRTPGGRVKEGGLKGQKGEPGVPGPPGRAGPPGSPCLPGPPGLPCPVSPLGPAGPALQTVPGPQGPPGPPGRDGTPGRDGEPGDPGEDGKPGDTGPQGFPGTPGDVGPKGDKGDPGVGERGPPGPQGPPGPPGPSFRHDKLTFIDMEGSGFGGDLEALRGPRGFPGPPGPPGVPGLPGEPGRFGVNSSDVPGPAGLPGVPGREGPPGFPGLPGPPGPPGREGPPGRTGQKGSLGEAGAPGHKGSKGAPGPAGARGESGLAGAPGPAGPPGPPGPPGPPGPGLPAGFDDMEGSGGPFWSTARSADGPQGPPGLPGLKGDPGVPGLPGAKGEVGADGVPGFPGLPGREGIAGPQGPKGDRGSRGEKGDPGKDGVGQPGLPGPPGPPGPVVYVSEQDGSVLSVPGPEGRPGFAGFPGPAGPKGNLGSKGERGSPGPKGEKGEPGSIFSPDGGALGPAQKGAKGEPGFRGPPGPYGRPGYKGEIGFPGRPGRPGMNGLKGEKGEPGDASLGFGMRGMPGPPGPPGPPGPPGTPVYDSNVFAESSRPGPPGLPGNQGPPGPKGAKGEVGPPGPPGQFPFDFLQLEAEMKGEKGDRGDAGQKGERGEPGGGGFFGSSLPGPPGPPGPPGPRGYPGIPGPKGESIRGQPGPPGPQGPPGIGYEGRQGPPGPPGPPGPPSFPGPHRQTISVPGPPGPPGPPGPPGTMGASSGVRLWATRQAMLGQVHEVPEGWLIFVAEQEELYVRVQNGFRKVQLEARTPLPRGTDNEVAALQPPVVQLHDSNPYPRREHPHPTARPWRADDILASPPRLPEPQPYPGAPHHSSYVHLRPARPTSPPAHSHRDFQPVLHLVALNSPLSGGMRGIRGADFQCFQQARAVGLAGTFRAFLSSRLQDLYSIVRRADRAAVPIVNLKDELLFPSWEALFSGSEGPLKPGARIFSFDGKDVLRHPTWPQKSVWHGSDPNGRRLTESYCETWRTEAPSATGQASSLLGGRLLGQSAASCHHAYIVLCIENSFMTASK

Experiments:
[1] = target: DNA-dependent protein kinase catalytic subunit (DNA-PKcs) (UniProt P78527); experiment: pull-down from H1299 and A549 cell lysates with endostatin-coupled Sepharose 4B, immunoblot
[2] = target: DNA-dependent protein kinase catalytic subunit (DNA-PKcs) (UniProt P78527); experiment: co-immunoprecipitation with anti-DNA-PKcs antibody from H1299 and A549 cells after endostatin uptake, immunoblot
[3] = target: DNA-dependent protein kinase catalytic subunit (DNA-PKcs) (UniProt P78527); experiment: co-immunoprecipitation

Measured: binding

recombinant natural human endostatin expressed by E. coli (from UniProt P39060 1572-1754)
binds: all assays above
